Assay results taken from publication PMC7862700.
The list shows a part of the results, in another mix than the full data. For some of these results: At the low end of the ranking the order means little. The list shows a part of the results. For some of these results: Construct or isoform of the protein are uncertain.

Sequences of proteins named here, by UniProt entry; tags and fusion partners are left off. A change or cut given only in a name is not applied to a line headed by its entry.
UniProt Q00613: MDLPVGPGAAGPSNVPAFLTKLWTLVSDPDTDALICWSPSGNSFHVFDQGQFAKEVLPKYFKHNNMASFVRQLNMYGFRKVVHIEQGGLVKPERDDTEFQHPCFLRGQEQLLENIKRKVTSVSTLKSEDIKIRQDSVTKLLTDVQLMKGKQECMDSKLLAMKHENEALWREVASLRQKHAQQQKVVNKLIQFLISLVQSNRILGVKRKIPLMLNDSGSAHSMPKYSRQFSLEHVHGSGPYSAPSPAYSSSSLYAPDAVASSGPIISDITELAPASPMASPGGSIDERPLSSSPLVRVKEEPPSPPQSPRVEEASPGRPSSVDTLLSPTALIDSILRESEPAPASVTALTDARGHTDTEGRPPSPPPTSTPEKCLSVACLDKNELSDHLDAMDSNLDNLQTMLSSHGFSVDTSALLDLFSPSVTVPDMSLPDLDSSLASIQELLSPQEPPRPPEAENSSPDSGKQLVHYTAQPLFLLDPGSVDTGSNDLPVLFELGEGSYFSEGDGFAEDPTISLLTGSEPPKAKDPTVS

What was measured:
HSF1 = HSF1 (UniProt Q00613); assay: DAPPL (digital affinity profiling via proximity ligation, sequencing); settings: 10 mM Tris-HCl pH 7.5, 50 mM NaCl, 1 mM DTT, 4% glycerol, room temperature, 30 min; GST-TFs on glutathione beads, 16-mer random dsDNA library, 0.1% …; high values mean tight binding; double strand, one strand shown; scale: fold enrichment (6-mer frequency, TF over GST control)
ELF2 = target: T1, ELF2 (UniProt Q15723); assay: as above; settings: 10 mM Tris-HCl pH 7.5, 50 mM NaCl, 1 mM DTT, 4% glycerol, room temperature, 30 min; GST-TFs on glutathione beads, 16-mer random dsDNA library, 0.1% …; high values mean tight binding; double strand, one strand shown; scale: fold enrichment (6-mer frequency, TF over GST control)
T1 sequence: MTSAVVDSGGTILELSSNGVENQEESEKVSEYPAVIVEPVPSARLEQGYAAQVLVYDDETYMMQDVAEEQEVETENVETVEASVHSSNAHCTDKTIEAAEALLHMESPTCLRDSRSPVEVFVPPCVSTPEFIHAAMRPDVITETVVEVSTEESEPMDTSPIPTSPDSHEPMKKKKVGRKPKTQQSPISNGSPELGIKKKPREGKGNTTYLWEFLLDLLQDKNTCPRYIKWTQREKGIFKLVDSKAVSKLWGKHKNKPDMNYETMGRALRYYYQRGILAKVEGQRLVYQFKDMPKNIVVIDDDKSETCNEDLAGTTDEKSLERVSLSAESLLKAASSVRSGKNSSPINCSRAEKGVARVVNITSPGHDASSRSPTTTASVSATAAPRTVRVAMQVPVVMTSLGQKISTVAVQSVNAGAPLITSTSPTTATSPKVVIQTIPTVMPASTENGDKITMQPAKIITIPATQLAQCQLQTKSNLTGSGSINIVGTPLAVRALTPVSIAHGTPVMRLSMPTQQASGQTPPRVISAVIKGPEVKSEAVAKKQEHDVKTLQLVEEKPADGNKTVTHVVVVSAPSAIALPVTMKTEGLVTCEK

| Sequence | binding signal (HSF1) | binding signal (ELF2) |
| --- | --- | --- |
| CGCGTG | 0.562 | 0.631 |
| TGTGTA | 0.729 | 0.805 |
| TGGAGC | 0.561 | 0.597 |
| GGCCAA | 0.725 | 0.779 |
| GAGACC | 0.133 | 0.202 |
| TAGGAG | 0.438 | 0.377 |
| GGGTGC | 0.572 | 0.772 |
| GGCGAG | 0.464 | 0.498 |
| GGAGGG | 0.266 | 0.299 |
| TAGAGC | 0.902 | 0.756 |
| CAGGCT | 0.853 | 0.812 |
| GGTGCC | 0.557 | 0.754 |
| CAGCGT | 0.688 | 0.795 |
| TCGGTC | 0.484 | 0.531 |
| GGATTG | 0.982 | 0.801 |
| GTAGGC | 0.599 | 0.696 |
| GGATGA | 0.944 | 0.996 |
| ACCGTA | 0.785 | 0.831 |
| TGGACG | 0.797 | 0.82 |
| CGGGAG | 0.206 | 0.203 |
| GCCGTA | 0.727 | 0.759 |

| Sequence | binding signal (HSF1) | binding signal (ELF2) |
| --- | --- | --- |
| GACCGT | 0.388 | 0.425 |
| GACGCA | 0.418 | 0.524 |
| GCACCA | 0.683 | 0.8 |
| AGTCGT | 0.317 | 0.366 |
| AGGACG | 0.404 | 0.468 |
| ACGGTG | 0.475 | 0.506 |
| GGAGTC | 0.196 | 0.215 |
| AGTGAG | 0.209 | 0.258 |
| AGACTG | 0.561 | 0.486 |
| GACTGA | 0.717 | 0.713 |
| AGCCGC | 0.803 | 0.87 |
| TGAGTG | 0.407 | 0.427 |
| GAGAGA | 0.584 | 0.409 |
| GGAATC | 0.932 | 0.795 |
| AGGAGT | 0.339 | 0.377 |
| CTGGGA | 0.92 | 0.769 |
| ACGGGT | 0.719 | 0.824 |
| GACTCA | 0.87 | 0.905 |
| AGGCCG | 0.412 | 0.462 |
| GGTTGA | 0.618 | 0.726 |
